# From the supplement of paper PMC10338343
# ± gives the standard deviation. The entries are a selection whose mix differs from that of the whole data set. The uncertainty is large for many entries. This is one part of the list.
# Columns and labels:
# [1] = tested on: MILI (PIWIL2) piRISC loaded with L1MC piRNA (26 nt); assay: pre-steady-state target cleavage rate (min^-1); higher = faster piRNA-guided slicing of the target; settings: guide: L1MC piRNA 5'p-UAACUAAAUACUAUGCAAGCUGUAGG
# Method in brief: (§1)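 The pre-steady-state cleavage rate was obtained by Cleave-'n-Seq with a burst-and-steady-state fit. A transcribed, DNA-blocked target RNA library (0.1 nM) was mixed with 1 nM active affinity-purified piRISC carrying one synthetic guide, with or without 500 nM GTSF1 partner protein, in HEPES–potassium acetate buffer at 33 °C for 0–8 or 0–960 min. Uncleaved targets were sequenced and normalised to depth and to weakly complementary targets, with three trials pooled and k3 capped at 0.0001 min^-1.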
# [2] = tested on: MIWI (PIWIL1) piRISC loaded with L1MC piRNA (30 nt); assay: as above; settings: guide: L1MC piRNA 5'p-UAACUAAAUACUAUGCAAGCUGUAGGUCCU
# Method in brief: as §1
# [3] = tested on: EfPiwi piRISC loaded with L1MC piRNA (26 nt); assay: pre-steady-state target cleavage rate (min^-1); guide: L1MC piRNA 5'p-UAACUAAAUACUAUGCAAGCUGUAGG; MIWI and MILI are mouse PIWI proteins and EfPiwi is from a freshwater sponge; tags in brackets are library labels; higher = faster piRNA-guided slicing of the target
# Method in brief: as §1
# [4] = auxiliary factor: none (no GTSF1)
# [5] = auxiliary factor: 500 nM Ephydatia muelleri Gtsf1
# [6] = auxiliary factor: none (no Gtsf1)
# [7] = auxiliary factor: 500 nM mouse GTSF1
Sequence,"pre-steady-state target cleavage rate [1, 4]","pre-steady-state target cleavage rate [2, 4]","pre-steady-state target cleavage rate [3, 5]","pre-steady-state target cleavage rate [3, 6]","pre-steady-state target cleavage rate [2, 7]","pre-steady-state target cleavage rate [1, 7]"
UCCUGGAUGUCGAUGCAUAGUAUUUCGUUA,0.00121 ± 0.0062,0.00115 ± 0.0067,0.00145 ± 0.0029,–,–,–
UCCUGGAUCAGCUUGCUUAGUAUUUUCAAA,0.000602 ± 0.0095,0.00115 ± 0.0062,0.00161 ± 0.004,–,–,–
UCCUGGAUGUCGAAGCAAAGUAUAUAGUUA,0.000159 ± 0.046,0.000194 ± 0.019,–,0.000131 ± 0.07,–,–
UCCUGCUACAGCUUGCAUAGUUUUUUCAAA,0.00174 ± 0.0039,0.00153 ± 0.005,–,0.000567 ± 0.011,–,–
UCCUCCUACAGCUUGCAAUGUAUUUAGUAA,0.00225 ± 0.0029,0.00233 ± 0.0025,0.00181 ± 0.0047,–,–,–
UCCUGGAUGUGCUUGCAUUCUAUUUAGUUA,0.00115 ± 0.0053,0.00162 ± 0.0045,0.000449 ± 0.0068,–,–,–
UCCUGGAUCAGCUUGGUUAGUAUUUAGAAA,0.00163 ± 0.0042,0.00142 ± 0.0047,0.00284 ± 0.0034,–,–,–
UCCUCCUACAGCUACGAUAGUAUUUAGUUA,0.00168 ± 0.0034,0.000629 ± 0.0065,0.00503 ± 0.0031,–,–,–
UCCUGGAUGUCGAAGCAUAGUCUUUAGUUA,0.00222 ± 0.0026,0.00091 ± 0.0065,0.000787 ± 0.0059,–,–,–
UCCUGGAUGUCGAAGCAUAGUAUUAUAGUUA,0.00204 ± 0.0038,0.000721 ± 0.0086,0.000727 ± 0.012,–,–,–
UCCUGGAUGUGCUUGCAUAGUAAUAAGUUA,0.00119 ± 0.0059,–,0.000383 ± 0.014,–,0.00117 ± 0.0093,–
UCCUGGAUGUCCUUGCUAAGUAUUUAGUAA,0.000427 ± 0.015,0.000501 ± 0.015,0.000515 ± 0.0073,–,–,–
UCCUCCUACAGCUACGAUAGUAUUUAGUAA,0.00069 ± 0.0084,0.000209 ± 0.016,–,0.000428 ± 0.01,–,–
UCCUGGAUGUCCUUGCAUAGAAUUUACUUA,0.001 ± 0.0071,0.00123 ± 0.0044,0.000791 ± 0.0078,–,–,–
UCCUGCUACAGCUUGCUAUCAUAAAUCAAA [g15:g25:cont:t1A],0.00014 ± 0.025,0.000686 ± 0.012,–,0.000185 ± 0.024,–,–
UCCUGGUACAGCUUGCAUAGUAUUAUGUAA,0.000549 ± 0.012,0.00203 ± 0.0046,0.00101 ± 0.006,–,–,–
UCCUGGAUCAGCUUGCAUAGUAUUUGUUA,0.00113 ± 0.0056,0.00191 ± 0.0031,0.00326 ± 0.0029,–,–,–
UCCUGGAACACGUUGCAUAGUAUUUAGAAA,0.00105 ± 0.0072,0.00114 ± 0.0058,0.00137 ± 0.0034,–,–,–
UCCUGGAACUCCUUGCAUAGUAUUUACAAA,0.000932 ± 0.0054,0.00141 ± 0.0045,0.00184 ± 0.0028,–,–,–
UCCUCCUACAGCUUGCAUUCUAUUUAGAAA,0.000667 ± 0.0068,0.000985 ± 0.0053,0.00125 ± 0.0043,–,–,–
UCCUGGAUGAGCUUGCAUAGUAUAUAGAAA,0.00115 ± 0.0065,0.00227 ± 0.0036,0.000976 ± 0.007,–,–,–
UCCUGGAUGUCGAAGCAUAGUAUUUAUUA,0.000121 ± 0.053,0.000581 ± 0.012,0.000288 ± 0.012,–,–,–
UCCUGGAUCAGCUUCCAUACUAUUUAGUUA,0.000334 ± 0.011,0.000463 ± 0.011,0.000424 ± 0.0058,–,–,–
UCCUGGUACAGCUUGCAUAGUUAUUAGAAA,0.000867 ± 0.0078,0.00141 ± 0.0053,0.00121 ± 0.0027,–,–,–
UCCUGCUAGUGCUUGCAUAGUAUUUAGUAA,0.000575 ± 0.0072,0.00198 ± 0.0027,0.00297 ± 0.0015,–,–,–

# Look-ups from the entries so far.
# UCCUGGAUCAGCUUGCAUAGUAUUUGUUA | pre-steady-state target cleavage rate [1, 4]: 0.00113 ± 0.0056
# UCCUGGAUGUCGAAGCAUAGUCUUUAGUUA | pre-steady-state target cleavage rate [2, 4]: 0.00091 ± 0.0065

# Additional entries:

Sequence,"pre-steady-state target cleavage rate [1, 4]","pre-steady-state target cleavage rate [2, 4]","pre-steady-state target cleavage rate [3, 5]","pre-steady-state target cleavage rate [3, 6]","pre-steady-state target cleavage rate [2, 7]","pre-steady-state target cleavage rate [1, 7]"
UCCUGGAUGUCGUUGCAUAGAAUAUAGUUA,0.00134 ± 0.0046,0.000624 ± 0.011,0.000799 ± 0.0073,–,–,–
UCCUGGAUGAGCUUGCUUAGUAUUUACAAA,0.00157 ± 0.0037,0.00188 ± 0.0033,0.00267 ± 0.0045,–,–,–
UCCUGGAUGUCGUUGCACUAGUAUUUAGUUA,0.000785 ± 0.008,0.000819 ± 0.011,0.000256 ± 0.013,–,–,–
UCCUCCUACAGGUUCCAUAGUAUUUAGUUA,0.000936 ± 0.0059,0.00144 ± 0.0043,0.0023 ± 0.0012,–,–,–
UCCUCCUACAGCUUGGUAAGUAUUUACAAA,0.000601 ± 0.0078,0.000403 ± 0.009,–,0.000543 ± 0.0089,–,–
UCCUGGUACAGCUUCCAUACUAUUUAGUUA,0.00102 ± 0.0086,0.000898 ± 0.0096,0.000618 ± 0.0085,–,–,–
UCCUGGAACAGCUUCGUUAGUAUUUAGAAA,0.000489 ± 0.011,0.000672 ± 0.0098,–,0.00033 ± 0.018,–,–
UCCUGGAUCAGCUUGGAUAGUAUUUACAAA,0.000265 ± 0.023,0.000759 ± 0.0082,0.000712 ± 0.005,–,–,–
UCCUGGAUGUCCUUGCAUAGUAUUAUCUUA,0.000959 ± 0.0069,0.000844 ± 0.0081,0.00164 ± 0.0058,–,–,–
UCCUGGAUCAGCUUCGUUAGUAUUUUCAAA,0.000514 ± 0.0067,0.000719 ± 0.0079,0.00082 ± 0.0098,–,0.00132 ± 0.0077,–
UCCUCCUACAGGUUGCAUAGUAUUUACAAA,0.000929 ± 0.0056,0.00132 ± 0.0048,0.00321 ± 0.0024,–,–,–
UCCUGGAUCAGCUUCCAUAGUAUUUAGAUA,0.000444 ± 0.0098,0.000734 ± 0.011,0.00231 ± 0.0018,–,–,–
UCCUGGAUGUCGAUGCAUAGUUAAUAGUUA,–,0.00129 ± 0.0049,0.000155 ± 0.018,–,–,0.00324 ± 0.0043
UCCUGGAUGUCCUUGCAUAGAAUAUAGUUA,0.00134 ± 0.0046,0.000971 ± 0.0076,0.00145 ± 0.0073,–,–,–
UCCUCCUACAGCUUCGAUAGUAUUUAGUAA,0.00231 ± 0.0025,0.00104 ± 0.0036,0.00413 ± 0.0021,–,0.263 ± 0.031,–
UCCUGGAACAGCUUCCAUAGUAUUUAGAUA,0.000498 ± 0.01,0.000815 ± 0.0089,0.00228 ± 0.0017,–,–,–
UCCUGGAUCAGCUUGCAAUCUAUUUAGAAA,0.000221 ± 0.025,0.000362 ± 0.0078,0.000769 ± 0.0066,–,–,–
UCCUGGAUGUCCUUGGAAAGUAUUUAGUUA,0.00235 ± 0.0027,0.000937 ± 0.0059,0.00124 ± 0.0061,–,0.00378 ± 0.0039,–
UCCUCCUACUCGUUGCAUAGUAUUUUCAAA,0.000851 ± 0.0039,0.000501 ± 0.0055,0.00113 ± 0.0066,–,–,–
UCCUGCUACAGCUUGCUUAGUAUUUACAAA,0.00108 ± 0.004,0.00123 ± 0.0064,0.00143 ± 0.0028,–,–,–
UCCUGGAUGUCGUAGCAUAGUAUUUUGUUA,0.00166 ± 0.0042,0.00111 ± 0.0076,0.00016 ± 0.031,–,–,–
UCCUGGAUGUCGAACCAUAGUAUUUAGUUUA,0.000214 ± 0.0093,0.000461 ± 0.009,0.0006 ± 0.012,–,0.00079 ± 0.0092,–
UCCUGGAACAGCUUGCAUACAAUUUAGUAA,0.000836 ± 0.0074,0.00158 ± 0.0039,0.00227 ± 0.0032,–,–,–
UCCUGGAACAGCUUGCAUAGGUAUUUAGUUA,–,0.000499 ± 0.01,0.00262 ± 0.0026,–,0.00266 ± 0.0049,0.00331 ± 0.0043
